# Laboratory results reported in patent US20090012150A1, “Stablized Pharmaceutical Composition Comprising an Amorphous Active Substance” (priority 2002, published 2009).
# Conditions: 6 days at 80° C.; hemi calcium salt
# Description: Nitrogen of 99% purity (vol/vol) purity was used as an inert gas. The samples were stored at 80° C. for 6 days, and then the assay of impurities was determined by High Performance Liquid Chromatography.
# The oxygen content in the vials was determined by gas chromatography with a mass spectrometric detector (GC/MS).
# The degradation products were determined by […] Agilent Technologies (Waldbronn, Germany) model HP 1100. Chromatograms were recorded by a UV detector at 250 nm. The column Chromolit Performance RP-18e 100×4.6 mm (Merck, Darmstadt, Germany) and the gradient of mobile phase A: 20 mM ammonium acetate pH 4.0, 5% (v/v) tetrahydrofuran and 25% (v/v) acetonitrile and the gradient of mobile phase B: 20 mM ammonium acetate pH 4.0, 5% (v/v) tetrahydrofuran and 70 (v/v) acetonitrile were used. The composition of the mobile phase was changed so that initially and to minute 2 there was 25% of mobile phase B (75% of mobile phase A), from minute 2 to minute 4.7 the composition of the mobile phase changed linearly to 100% mobile phase B and it remained such to the end of the analysis at minute 5.5. Flow rate of the mobile phase was 7 ml/min. […] The samples of atorvastatin calcium were dissolved in the solvent 200 mM Tris p H 7, 40% (v/v) acetonitrile of the concentration 0.5 mg/ml.
row,Compound,Effect of storing in an inert atmosphere on stability
1,"CC(C)c1c(C(=O)Nc2ccccc2)c(-c2ccccc2)c(-c2ccc(F)cc2)n1CC[C@@H](O)C[C@@H](O)CC(=O)O.CC(C)c1c(C(=O)Nc2ccccc2)c(-c2ccccc2)c(-c2ccc(F)cc2)n1CC[C@@H](O)C[C@@H](O)CC(=O)O.CC(C)c1c(C(=O)Nc2ccccc2)c(-c2ccccc2)c(-c2ccc(F)cc2)n1CC[C@@H](O)C[C@@H](O)CC(=O)[O-].CC(C)c1c(C(=O)Nc2ccccc2)c(-c2ccccc2)c(-c2ccc(F)cc2)n1CC[C@@H](O)C[C@@H](O)CC(=O)[O-].[Ca+2] (relative stereo) [Amorphous atorvastatin calcium, (R—(R*, R*))-2-(4-fluorophenyl)-β,δ-dihydroxy-5-(1-methylethyl)-3-phenyl-4((phenylamino)carbonyl)-1H-pyrrole-1-heptanoic acid hemi calcium salt]",improves the stability
2,"CC(C)c1c(C(=O)Nc2ccccc2)c(-c2ccccc2)c(-c2ccc(F)cc2)n1CC[C@@H](O)C[C@@H](O)CC(=O)O.CC(C)c1c(C(=O)Nc2ccccc2)c(-c2ccccc2)c(-c2ccc(F)cc2)n1CC[C@@H](O)C[C@@H](O)CC(=O)O.CC(C)c1c(C(=O)Nc2ccccc2)c(-c2ccccc2)c(-c2ccc(F)cc2)n1CC[C@@H](O)C[C@@H](O)CC(=O)[O-].CC(C)c1c(C(=O)Nc2ccccc2)c(-c2ccccc2)c(-c2ccc(F)cc2)n1CC[C@@H](O)C[C@@H](O)CC(=O)[O-].[Ca+2] (relative stereo) [Crystalline atorvastatin calcium, (R—(R*, R*))-2-(4-fluorophenyl)-β,δ-dihydroxy-5-(1-methylethyl)-3-phenyl-4((phenylamino)carbonyl)-1H-pyrrole-1-heptanoic acid hemi calcium salt]",no influence on the stability
